Measurements as given in the supplement of paper PMC6411743.
± gives the standard deviation of the averaged measurements. The entries are a selection whose mix differs from that of the whole data set. Small differences around the control level are noise.

Chains of the proteins cited; added tags and fusions are not shown. Lines headed by an entry give the natural chain unless they say otherwise; changes in a name come on top.
UniProt O95551: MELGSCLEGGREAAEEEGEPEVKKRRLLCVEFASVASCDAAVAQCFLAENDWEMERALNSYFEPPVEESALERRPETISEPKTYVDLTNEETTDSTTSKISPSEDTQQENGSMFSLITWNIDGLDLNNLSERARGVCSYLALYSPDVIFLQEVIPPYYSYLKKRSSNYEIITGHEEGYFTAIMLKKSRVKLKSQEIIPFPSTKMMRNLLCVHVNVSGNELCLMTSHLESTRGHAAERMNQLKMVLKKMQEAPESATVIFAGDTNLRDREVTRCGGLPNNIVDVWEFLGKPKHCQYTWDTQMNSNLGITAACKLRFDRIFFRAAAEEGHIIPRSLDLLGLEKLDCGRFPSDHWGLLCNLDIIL
UniProt O95619, whole entry: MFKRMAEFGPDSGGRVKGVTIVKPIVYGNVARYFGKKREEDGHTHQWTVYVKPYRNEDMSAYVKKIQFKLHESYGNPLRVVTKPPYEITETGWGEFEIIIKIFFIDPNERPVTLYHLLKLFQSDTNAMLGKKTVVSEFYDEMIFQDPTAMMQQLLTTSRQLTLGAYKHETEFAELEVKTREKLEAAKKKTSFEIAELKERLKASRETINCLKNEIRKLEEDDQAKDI
UniProt O75592: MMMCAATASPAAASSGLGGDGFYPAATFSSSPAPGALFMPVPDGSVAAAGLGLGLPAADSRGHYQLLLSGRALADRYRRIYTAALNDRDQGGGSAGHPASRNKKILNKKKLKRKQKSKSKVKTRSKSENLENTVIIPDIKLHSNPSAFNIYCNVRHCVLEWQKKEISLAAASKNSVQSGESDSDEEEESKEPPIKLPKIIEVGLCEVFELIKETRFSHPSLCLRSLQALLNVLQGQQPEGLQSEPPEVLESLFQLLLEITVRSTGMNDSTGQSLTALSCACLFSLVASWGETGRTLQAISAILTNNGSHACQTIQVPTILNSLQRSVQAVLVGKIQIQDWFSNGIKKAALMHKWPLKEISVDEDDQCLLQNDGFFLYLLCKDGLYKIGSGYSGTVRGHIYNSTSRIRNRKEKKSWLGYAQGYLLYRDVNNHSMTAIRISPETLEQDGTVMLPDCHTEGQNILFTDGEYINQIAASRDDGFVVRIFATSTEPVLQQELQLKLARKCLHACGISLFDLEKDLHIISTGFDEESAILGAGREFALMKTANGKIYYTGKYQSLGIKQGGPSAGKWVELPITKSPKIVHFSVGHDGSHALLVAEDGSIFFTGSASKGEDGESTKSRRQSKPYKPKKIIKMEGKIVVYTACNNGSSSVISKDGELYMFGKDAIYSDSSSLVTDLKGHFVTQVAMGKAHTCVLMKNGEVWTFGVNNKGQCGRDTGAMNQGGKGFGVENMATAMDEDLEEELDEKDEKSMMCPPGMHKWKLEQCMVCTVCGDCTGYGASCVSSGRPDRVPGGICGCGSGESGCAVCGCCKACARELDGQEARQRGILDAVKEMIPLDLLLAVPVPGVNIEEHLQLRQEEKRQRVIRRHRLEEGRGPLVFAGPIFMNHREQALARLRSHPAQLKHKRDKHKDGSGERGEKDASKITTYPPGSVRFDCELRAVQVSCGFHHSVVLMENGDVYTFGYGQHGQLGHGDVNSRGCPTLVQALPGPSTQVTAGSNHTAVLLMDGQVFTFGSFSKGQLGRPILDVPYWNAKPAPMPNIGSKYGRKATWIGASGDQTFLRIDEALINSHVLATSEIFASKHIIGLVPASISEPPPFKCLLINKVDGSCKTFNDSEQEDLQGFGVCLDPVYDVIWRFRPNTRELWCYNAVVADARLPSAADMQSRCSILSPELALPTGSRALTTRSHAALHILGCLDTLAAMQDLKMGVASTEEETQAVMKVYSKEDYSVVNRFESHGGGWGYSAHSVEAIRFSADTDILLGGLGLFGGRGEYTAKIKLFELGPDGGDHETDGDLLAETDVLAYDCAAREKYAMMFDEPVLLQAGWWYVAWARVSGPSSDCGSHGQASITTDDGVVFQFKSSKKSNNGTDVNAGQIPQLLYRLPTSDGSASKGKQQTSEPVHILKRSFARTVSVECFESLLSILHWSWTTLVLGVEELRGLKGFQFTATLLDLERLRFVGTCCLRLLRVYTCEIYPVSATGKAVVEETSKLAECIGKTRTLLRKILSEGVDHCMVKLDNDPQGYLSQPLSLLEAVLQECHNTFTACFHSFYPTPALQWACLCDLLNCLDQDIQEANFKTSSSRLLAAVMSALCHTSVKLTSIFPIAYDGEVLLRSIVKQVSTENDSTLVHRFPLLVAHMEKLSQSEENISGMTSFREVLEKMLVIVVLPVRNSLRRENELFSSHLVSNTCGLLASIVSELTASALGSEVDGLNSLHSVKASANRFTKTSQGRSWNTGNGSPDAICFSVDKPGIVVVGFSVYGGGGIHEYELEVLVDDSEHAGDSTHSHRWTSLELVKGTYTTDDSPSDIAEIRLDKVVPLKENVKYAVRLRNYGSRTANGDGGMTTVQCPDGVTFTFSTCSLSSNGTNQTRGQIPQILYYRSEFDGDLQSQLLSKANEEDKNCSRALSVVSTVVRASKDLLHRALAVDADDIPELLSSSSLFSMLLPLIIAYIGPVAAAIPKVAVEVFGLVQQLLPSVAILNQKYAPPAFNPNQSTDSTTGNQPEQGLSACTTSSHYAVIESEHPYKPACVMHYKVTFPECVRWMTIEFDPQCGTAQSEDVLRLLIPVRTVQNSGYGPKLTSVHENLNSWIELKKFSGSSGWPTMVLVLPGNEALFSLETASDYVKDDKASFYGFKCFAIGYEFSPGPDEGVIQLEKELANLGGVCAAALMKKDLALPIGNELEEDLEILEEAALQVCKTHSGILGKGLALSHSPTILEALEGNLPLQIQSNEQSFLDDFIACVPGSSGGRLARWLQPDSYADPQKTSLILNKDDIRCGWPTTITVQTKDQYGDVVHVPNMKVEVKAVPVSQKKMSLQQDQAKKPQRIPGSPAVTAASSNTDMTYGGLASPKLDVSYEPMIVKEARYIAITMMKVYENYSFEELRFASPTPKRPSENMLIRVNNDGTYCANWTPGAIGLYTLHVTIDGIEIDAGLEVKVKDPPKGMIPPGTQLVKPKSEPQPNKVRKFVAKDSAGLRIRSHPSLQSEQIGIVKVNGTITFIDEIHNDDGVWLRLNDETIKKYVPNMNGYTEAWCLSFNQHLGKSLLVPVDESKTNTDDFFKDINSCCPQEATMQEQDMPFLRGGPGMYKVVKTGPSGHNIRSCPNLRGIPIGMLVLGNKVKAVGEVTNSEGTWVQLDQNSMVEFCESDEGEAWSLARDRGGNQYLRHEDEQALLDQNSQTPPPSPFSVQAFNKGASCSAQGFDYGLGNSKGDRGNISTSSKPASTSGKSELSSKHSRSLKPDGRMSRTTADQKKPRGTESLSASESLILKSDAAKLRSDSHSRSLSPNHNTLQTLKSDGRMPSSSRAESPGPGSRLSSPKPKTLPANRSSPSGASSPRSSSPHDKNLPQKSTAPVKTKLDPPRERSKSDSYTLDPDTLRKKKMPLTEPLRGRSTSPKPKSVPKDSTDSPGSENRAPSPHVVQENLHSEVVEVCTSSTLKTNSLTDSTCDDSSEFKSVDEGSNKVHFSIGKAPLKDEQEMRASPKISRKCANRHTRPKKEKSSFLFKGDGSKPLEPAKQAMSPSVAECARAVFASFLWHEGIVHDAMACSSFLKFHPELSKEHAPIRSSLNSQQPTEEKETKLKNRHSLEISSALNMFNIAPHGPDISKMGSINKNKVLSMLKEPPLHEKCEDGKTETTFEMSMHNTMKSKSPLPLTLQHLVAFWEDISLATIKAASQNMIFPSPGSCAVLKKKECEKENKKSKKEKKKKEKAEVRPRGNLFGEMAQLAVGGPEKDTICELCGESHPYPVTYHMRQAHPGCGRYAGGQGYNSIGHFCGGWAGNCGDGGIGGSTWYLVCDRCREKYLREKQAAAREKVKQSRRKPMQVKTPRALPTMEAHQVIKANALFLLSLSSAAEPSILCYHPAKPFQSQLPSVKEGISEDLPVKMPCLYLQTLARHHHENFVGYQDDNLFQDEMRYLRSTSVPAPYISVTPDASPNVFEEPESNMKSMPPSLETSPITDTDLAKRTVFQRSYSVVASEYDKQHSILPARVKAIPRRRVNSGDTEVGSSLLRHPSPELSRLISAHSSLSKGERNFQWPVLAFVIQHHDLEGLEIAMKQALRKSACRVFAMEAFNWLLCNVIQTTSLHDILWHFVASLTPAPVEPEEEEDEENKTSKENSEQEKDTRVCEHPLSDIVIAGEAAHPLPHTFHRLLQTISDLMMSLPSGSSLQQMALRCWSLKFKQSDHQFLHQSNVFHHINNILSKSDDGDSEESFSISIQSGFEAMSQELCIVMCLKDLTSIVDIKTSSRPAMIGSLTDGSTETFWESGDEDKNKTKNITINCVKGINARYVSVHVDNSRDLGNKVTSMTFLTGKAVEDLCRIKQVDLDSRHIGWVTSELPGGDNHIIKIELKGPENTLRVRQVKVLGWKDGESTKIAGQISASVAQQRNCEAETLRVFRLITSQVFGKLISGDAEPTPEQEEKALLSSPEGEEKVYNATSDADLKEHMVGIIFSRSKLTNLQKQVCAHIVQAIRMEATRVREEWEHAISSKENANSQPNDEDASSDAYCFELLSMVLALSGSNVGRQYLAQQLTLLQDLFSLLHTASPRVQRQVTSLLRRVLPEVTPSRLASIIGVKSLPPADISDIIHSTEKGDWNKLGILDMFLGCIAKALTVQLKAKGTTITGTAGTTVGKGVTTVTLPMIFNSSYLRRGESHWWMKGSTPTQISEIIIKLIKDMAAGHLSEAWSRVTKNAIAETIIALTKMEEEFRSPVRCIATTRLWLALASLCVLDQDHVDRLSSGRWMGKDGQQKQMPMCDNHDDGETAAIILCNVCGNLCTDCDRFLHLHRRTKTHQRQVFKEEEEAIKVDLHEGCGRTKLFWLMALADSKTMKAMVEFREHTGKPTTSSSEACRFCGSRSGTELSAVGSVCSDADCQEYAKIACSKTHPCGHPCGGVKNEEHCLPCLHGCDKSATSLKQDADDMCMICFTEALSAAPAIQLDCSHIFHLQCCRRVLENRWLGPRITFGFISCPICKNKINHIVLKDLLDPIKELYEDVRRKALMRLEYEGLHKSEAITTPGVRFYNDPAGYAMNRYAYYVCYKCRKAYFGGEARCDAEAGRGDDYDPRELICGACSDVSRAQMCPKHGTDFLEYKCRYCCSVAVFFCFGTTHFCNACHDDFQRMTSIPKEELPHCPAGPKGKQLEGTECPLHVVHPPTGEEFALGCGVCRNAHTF
UniProt O75460: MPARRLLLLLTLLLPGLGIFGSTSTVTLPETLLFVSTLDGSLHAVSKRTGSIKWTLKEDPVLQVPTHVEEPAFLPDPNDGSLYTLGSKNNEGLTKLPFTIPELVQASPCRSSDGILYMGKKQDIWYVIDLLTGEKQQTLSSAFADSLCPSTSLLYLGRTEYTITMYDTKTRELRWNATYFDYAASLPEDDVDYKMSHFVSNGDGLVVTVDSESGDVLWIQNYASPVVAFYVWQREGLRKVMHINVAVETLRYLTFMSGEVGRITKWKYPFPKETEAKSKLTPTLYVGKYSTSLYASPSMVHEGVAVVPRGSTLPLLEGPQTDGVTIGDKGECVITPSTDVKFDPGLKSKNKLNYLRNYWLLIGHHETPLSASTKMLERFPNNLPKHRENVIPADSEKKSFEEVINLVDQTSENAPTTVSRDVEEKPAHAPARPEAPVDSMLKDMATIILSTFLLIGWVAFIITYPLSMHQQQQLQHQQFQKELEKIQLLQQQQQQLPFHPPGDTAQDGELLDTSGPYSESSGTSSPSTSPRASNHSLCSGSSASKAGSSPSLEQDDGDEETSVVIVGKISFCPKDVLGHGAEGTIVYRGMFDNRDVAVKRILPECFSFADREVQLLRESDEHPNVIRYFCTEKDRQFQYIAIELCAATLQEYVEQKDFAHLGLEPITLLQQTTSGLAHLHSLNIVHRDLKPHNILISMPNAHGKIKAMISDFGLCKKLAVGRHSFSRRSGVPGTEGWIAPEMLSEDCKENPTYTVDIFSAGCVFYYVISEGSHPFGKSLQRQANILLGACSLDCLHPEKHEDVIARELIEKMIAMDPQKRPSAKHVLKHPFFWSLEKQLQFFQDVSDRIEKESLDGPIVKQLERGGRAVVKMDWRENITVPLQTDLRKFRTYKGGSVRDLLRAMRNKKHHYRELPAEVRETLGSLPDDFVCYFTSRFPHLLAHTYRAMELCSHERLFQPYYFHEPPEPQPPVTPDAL
UniProt O75489, whole entry: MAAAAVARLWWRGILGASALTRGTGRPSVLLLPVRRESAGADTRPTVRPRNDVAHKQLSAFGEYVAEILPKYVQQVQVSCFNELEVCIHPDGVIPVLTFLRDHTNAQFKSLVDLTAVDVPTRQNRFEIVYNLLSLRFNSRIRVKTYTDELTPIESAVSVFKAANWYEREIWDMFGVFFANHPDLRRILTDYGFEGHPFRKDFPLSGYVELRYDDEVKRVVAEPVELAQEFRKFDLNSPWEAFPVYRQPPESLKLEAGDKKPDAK

Compound: Nc1ncnc2c1ncn2[C@@H]1O[C@H](COP(=O)(O)OP(=O)(O)OP(=O)(O)O)[C@@H](O)[C@H]1O [adenosine triphosphate]
Experiment: NP40-soluble protein abundance relative to vehicle (solubility fold change) (ratio); higher = more soluble protein in presence of ATP
Procedure, shortened: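 Eight concentrations, 0.1 to 10 mM, were tested on Jurkat crude lysate for 10 min at room temperature and then 3 min at 37 °C, in three independent experiments. The lysate was solubilised with 0.8% NP40 and benzonase, ultracentrifuged, and the supernatant TMT-labelled for LC-MS/MS. Each value is the fold change against the detergent-processed vehicle in its own replicate, from vsn-normalised intensities.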

Target	NP40-soluble protein abundance (concentration: 0.1mM)	NP40-soluble protein abundance (concentration: 0.5mM)
UniProt O75582 and related entries	1.08 ± 0.054	1.09 ± 0.054
UniProt O95475	1.02 ± 0.044	1.03 ± 0.065
UniProt O75934	0.979 ± 0.089	0.939 ± 0.073
UniProt O60879-2|O60879-3|C9J6U3 and related entries	1.02 ± 0.043	1.01 ± 0.048
CDS2 (UniProt O95674)	0.984 ± 0.083	0.948 ± 0.079
UniProt O75054 and related entries	0.972 ± 0.073	0.905 ± 0.13
ARIH2 (UniProt O95376)	0.998 ± 0.076	0.996 ± 0.066
UniProt O94901-9|E9PHI4 and related entries	1.03 ± 0.18	1.07 ± 0.13
TAF5L (UniProt O75529)	1.05 ± 0.073	1.08 ± 0.053
IPO7 (UniProt O95373)	0.928 ± 0.015	0.912 ± 0.065
UniProt O60733 and related entries	0.902 ± 0.01	0.942 ± 0.048
RBBP9 (UniProt O75884)	1.01 ± 0.03	1 ± 0.051
UniProt O95749 and related entries	1.01 ± 0.025	0.974 ± 0.039
N4BP1 (UniProt O75113)	0.977 ± 0.011	0.97 ± 0.017
UniProt O95747	1.05 ± 0.052	1.03 ± 0.076
MTA2 (UniProt O94776)	1.02 ± 0.029	1.06 ± 0.069
PLOD3 (UniProt O60568)	1.06 ± 0.045	1.01 ± 0.057
UniProt O75381 and related entries	0.912 ± 0.066	0.828 ± 0.14
POP4 (UniProt O95707)	0.936 ± 0.05	0.967 ± 0.013
PRMT3 (UniProt O60678)	1.06 ± 0.024	1.04 ± 0.035

Target	NP40-soluble protein abundance (concentration: 0.1mM)	NP40-soluble protein abundance (concentration: 0.5mM)
UniProt O95551	0.986 ± 0.056	1 ± 0.031
UniProt O75071	1.01 ± 0.13	0.969 ± 0.11
UniProt O95777	1.04 ± 0.045	1 ± 0.13
MAFK (UniProt O60675)	0.996 ± 0.098	1 ± 0.11
UBXN7 (UniProt O94888)	1 ± 0.025	0.971 ± 0.023
CCNK (UniProt O75909)	1.01 ± 0.06	1.09 ± 0.044
UniProt O75410 and related entries	0.98 ± 0.014	0.973 ± 0.012
YEATS4 (UniProt O95619)	0.938 ± 0.088	1.03 ± 0.088
SMNDC1 (UniProt O75940)	1.02 ± 0.044	1.12 ± 0.059
UniProt O60763 and related entries	0.954 ± 0.02	0.988 ± 0.052
UniProt O75398 and related entries	1.01 ± 0.072	0.992 ± 0.049
UniProt O75150 and related entries	1 ± 0.026	0.992 ± 0.03
GMDS (UniProt O60547)	1.07 ± 0.11	1.06 ± 0.1
UniProt O75170-3|O75170-4|O75170-5|O75170	1 ± 0.019	0.974 ± 0.018
STAM2 (UniProt O75886)	0.9742 ± 0.0077	0.955 ± 0.025
SNX3 (UniProt O60493)	0.965 ± 0.082	0.944 ± 0.098
UniProt O95479 and related entries	1.05 ± 0.049	1.02 ± 0.034
HEXIM1 (UniProt O94992)	0.976 ± 0.045	0.972 ± 0.036
UniProt O60664	0.917 ± 0.033	0.904 ± 0.066
UniProt O76021 and related entries	1.02 ± 0.039	1.11 ± 0.12

Target	NP40-soluble protein abundance (concentration: 0.1mM)	NP40-soluble protein abundance (concentration: 0.5mM)
UniProt O94966-6|O94966-7|O94966-4	1.01 ± 0.016	0.984 ± 0.021
UniProt O75865 and related entries	0.925 ± 0.18	0.931 ± 0.14
RNASEH1 (UniProt O60930)	0.977 ± 0.051	1.03 ± 0.11
ENDOD1 (UniProt O94919)	1.03 ± 0.027	0.996 ± 0.025
HUS1 (UniProt O60921)	1.01 ± 0.066	1.04 ± 0.061
UniProt O94903	1.03 ± 0.042	1.01 ± 0.085
UniProt O94842 and related entries	0.936 ± 0.034	0.918 ± 0.068
GIGYF1 (UniProt O75420)	1.11 ± 0.11	1.16 ± 0.12
DDHD2 (UniProt O94830)	1.04 ± 0.023	1.015 ± 0.01
UniProt O75592 and related entries	0.974 ± 0.12	0.996 ± 0.084
UniProt O94822 and related entries	1.07 ± 0.031	1.03 ± 0.014
POLR1A (UniProt O95602)	1.08 ± 0.014	1.06 ± 0.018
MOCS3 (UniProt O95396)	1.03 ± 0.047	1 ± 0.065
UniProt O60524 and related entries	0.981 ± 0.024	0.926 ± 0.044
UniProt O75367 and related entries	0.9042 ± 0.0054	0.884 ± 0.02
UniProt O75093	0.98 ± 0.057	0.954 ± 0.017
UniProt O76062 and related entries	1.07 ± 0.095	0.981 ± 0.079
UniProt O94927	0.988 ± 0.051	0.964 ± 0.044
UniProt O75460	1.02 ± 0.045	1.02 ± 0.082
NDUFS3 (UniProt O75489)	0.992 ± 0.044	0.994 ± 0.044

4 entries from above, set out differently.
UniProt O94966-6|O94966-7|O94966-4
  NP40-soluble protein abundance (concentration: 0.1mM): 1.01 ± 0.016
  NP40-soluble protein abundance (concentration: 0.5mM): 0.984 ± 0.021
UniProt O94903
  NP40-soluble protein abundance (concentration: 0.1mM): 1.03 ± 0.042
  NP40-soluble protein abundance (concentration: 0.5mM): 1.01 ± 0.085
DDHD2 (UniProt O94830)
  NP40-soluble protein abundance (concentration: 0.1mM): 1.04 ± 0.023
  NP40-soluble protein abundance (concentration: 0.5mM): 1.015 ± 0.01
UniProt O75592 and related entries
  NP40-soluble protein abundance (concentration: 0.1mM): 0.974 ± 0.12
  NP40-soluble protein abundance (concentration: 0.5mM): 0.996 ± 0.084
